From article PMC11705647
These are yes or no findings as the source states them, for the method shown. Binding seen in cells or lysates may run through a third protein. Some results given as binding are weak or reduced against the parent protein; the word gives no strength.

Protein sequences, listed by entry. Tags and fused reporters are not part of them.
UniProt P30051: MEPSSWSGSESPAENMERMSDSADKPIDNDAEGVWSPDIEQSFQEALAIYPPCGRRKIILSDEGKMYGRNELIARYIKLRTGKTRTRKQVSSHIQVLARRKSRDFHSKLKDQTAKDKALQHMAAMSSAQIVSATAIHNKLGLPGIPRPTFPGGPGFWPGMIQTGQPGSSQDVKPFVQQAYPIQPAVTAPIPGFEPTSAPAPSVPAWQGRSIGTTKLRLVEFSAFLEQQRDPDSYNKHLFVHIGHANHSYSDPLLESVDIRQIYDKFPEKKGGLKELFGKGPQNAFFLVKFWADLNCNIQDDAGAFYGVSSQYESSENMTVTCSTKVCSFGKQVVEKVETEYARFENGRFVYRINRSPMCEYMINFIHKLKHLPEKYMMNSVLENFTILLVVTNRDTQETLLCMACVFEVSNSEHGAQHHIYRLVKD

Biological target: TEA domain family member 1 (TEAD1) (mouse (endogenous in TCMK-1)) (UniProt P30051)
Experiment: co-IP; TCMK-1 cells treated with 10 µM cisplatin or vehicle for 24 h, lysed in NP-40 lysis buffer; lysates pre-cleared, incubated with rabbit anti-TEAD1 antibody or rabbit IgG overnight at 4°C, precipitated with protein A/G Plus-agarose; immunoblotted for PGC1α

B1: peroxisomal proliferator-γ coactivator-1α (PGC-1α) (protein, UniProt O70343 1-797)
chain: MAWDMCSQDSVWSDIECAALVGEDQPLCPDLPELDLSELDVNDLDTDSFLGGLKWCSDQSEIISNQYNNEPANIFEKIDEENEANLLAVLTETLDSLPVDEDGLPSFDALTDGAVTTDNEASPSSMPDGTPPPQEAEEPSLLKKLLLAPANTQLSYNECSGLSTQNHAANHTHRIRTNPAIVKTENSWSNKAKSICQQQKPQRRPCSELLKYLTTNDDPPHTKPTENRNSSRDKCASKKKSHTQPQSQHAQAKPTTLSLPLTPESPNDPKGSPFENKTIERTLSVELSGTAGLTPPTTPPHKANQDNPFKASPKLKPSCKTVVPPPTKRARYSECSGTQGSHSTKKGPEQSELYAQLSKSSGLSRGHEERKTKRPSLRLFGDHDYCQSLNSKTDILINISQELQDSRQLDFKDASCDWQGHICSSTDSGQCYLRETLEASKQVSPCSTRKQLQDQEIRAELNKHFGHPCQAVFDDKSDKTSELRDGDFSNEQFSKLPVFINSGLAMDGLFDDSEDESDKLSYPWDGTQPYSLFDVSPSCSSFNSPCRDSVSPPKSLFSQRPQRMRSRSRSFSRHRSCSRSPYSRSRSRSPGSRSSSRSCYYYESSHYRHRTHRNSPLYVRSRSRSPYSRRPRYDSYEAYEHERLKRDEYRKEHEKRESERAKQRERQKQKAIEERRVIYVGKIRPDTTRTELRDRFEVFGEIEECTVNLRDDGDSYGFITYRYTCDAFAALENGYTLRRSNETDFELYFCGRKQFFKSNYADLDTNSDDFDPASTKSKYDSLDFDSLLKEAQRSLRR
Question: For B1, which binding is on record?
Answer: Its binding is “binds”.
